Data published in patent publication US20170137513A1.
Results are given in words; binding and its absence hold for the method and conditions named. Some results given as binding are weak or reduced against the parent protein; the word gives no strength.

The chains behind the UniProt entries cited, without tags or fusion partners. Residues count along the entry.
UniProt P20273, residues 20-847: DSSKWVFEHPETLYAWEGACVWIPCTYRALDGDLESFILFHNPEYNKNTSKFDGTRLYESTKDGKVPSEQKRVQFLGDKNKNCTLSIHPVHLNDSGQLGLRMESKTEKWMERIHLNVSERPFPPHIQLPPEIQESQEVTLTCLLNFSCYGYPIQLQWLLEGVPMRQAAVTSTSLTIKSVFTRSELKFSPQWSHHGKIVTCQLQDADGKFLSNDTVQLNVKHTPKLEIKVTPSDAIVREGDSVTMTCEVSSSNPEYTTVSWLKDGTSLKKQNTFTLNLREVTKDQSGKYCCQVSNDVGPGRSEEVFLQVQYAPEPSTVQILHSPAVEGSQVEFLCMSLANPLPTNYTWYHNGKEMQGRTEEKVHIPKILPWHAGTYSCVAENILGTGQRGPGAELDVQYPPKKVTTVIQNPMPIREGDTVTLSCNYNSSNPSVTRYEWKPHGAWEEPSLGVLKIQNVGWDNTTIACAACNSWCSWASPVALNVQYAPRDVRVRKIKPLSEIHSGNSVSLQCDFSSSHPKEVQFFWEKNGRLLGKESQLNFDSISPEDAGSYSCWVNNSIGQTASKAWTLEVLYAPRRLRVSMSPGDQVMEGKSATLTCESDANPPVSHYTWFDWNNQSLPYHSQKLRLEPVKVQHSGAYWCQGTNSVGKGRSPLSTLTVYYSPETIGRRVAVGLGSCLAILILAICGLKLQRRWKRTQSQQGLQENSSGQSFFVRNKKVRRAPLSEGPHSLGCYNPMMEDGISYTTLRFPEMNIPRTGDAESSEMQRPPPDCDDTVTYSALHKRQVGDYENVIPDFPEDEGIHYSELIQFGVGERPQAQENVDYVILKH

Biological target: human CD22 (human) (UniProt P20273)
Experiment: flow cytometry, direct immunofluorescence on normal human PBMC

B1: RFB4 monoclonal antibody (antibody, V domains shown)
VH: EVQLVESGGGLVKPGGSLKLSCAASGFAFSIYDMSWVRQTPEKRLEWVAYISSGGGTTYYPDTVKGRFTISRDNAKNTLYLQMSSLKSEDTAMYYCARHSGYGSSYGVLFAYWGQGTLVTVSA
VL: DIQMTQTTSSLSASLGDRVTISCRASQDISNYLNWYQQKPDGTVKLLIYYTSILHSGVPSRFSGSGSGTDYSLTISNLEQEDFATYFCQQGNTLPWTFGGGTKLEIK
  binding: binds
